## Melanoma cell counts after drug treatment

Source: doi:10.1371/journal.pone.0140310, primary screening data, rounded.

First drug in all entries: A-769662, 10000 nM, N#Cc1c(O)c2c(-c3ccc(-c4ccccc4O)cc3)csc2[nH]c1=O

Compounds and concentrations:
dovitinib, 500 nM: CN1CCN(c2ccc3nc(-c4c(N)c5c(F)cccc5[nH]c4=O)[nH]c3c2)CC1
etoposide, 100 nM: COc1cc([C@@H]2c3cc4c(cc3[C@@H](O[C@@H]3O[C@@H]5CO[C@@H](C)O[C@H]5[C@H](O)[C@H]3O)[C@H]3COC(=O)[C@H]23)OCO4)cc(OC)c1O
GW0742, 10000 nM: Cc1cc(SCc2sc(-c3ccc(C(F)(F)F)c(F)c3)nc2C)ccc1OCC(=O)O
sorafenib, 2000 nM: CNC(=O)c1cc(Oc2ccc(NC(=O)Nc3ccc(Cl)c(C(F)(F)F)c3)cc2)ccn1
ruxolitinib, 5000 nM: N#CC[C@H](C1CCCC1)n1cc(-c2ncnc3[nH]ccc23)cn1
gemcitabine, 2 nM: Nc1ccn([C@@H]2O[C@H](CO)[C@@H](O)C2(F)F)c(=O)n1
lestaurtinib, 20 nM: C[C@]12O[C@H](C[C@]1(O)CO)n1c3ccccc3c3c4c(c5c6ccccc6n2c5c31)CNC4=O
NVP-BEZ235, 20 nM: Cn1c(=O)n(-c2ccc(C(C)(C)C#N)cc2)c2c3cc(-c4cnc5ccccc5c4)ccc3ncc21
MK-1775, 100 nM: C=CCn1c(=O)c2cnc(Nc3ccc(N4CCN(C)CC4)cc3)nc2n1-c1cccc(C(C)(C)O)n1
enzastaurin, 4000 nM: Cn1cc(C2=C(c3cn(C4CCN(Cc5ccccn5)CC4)c4ccccc34)C(=O)NC2=O)c2ccccc21
bortezomib, 5 nM: CC(C)C[C@H](NC(=O)[C@H](Cc1ccccc1)NC(=O)c1cnccn1)B(O)O
JZL184, 5000 nM: O=C(Oc1ccc([N+](=O)[O-])cc1)N1CCC(C(O)(c2ccc3c(c2)OCO3)c2ccc3c(c2)OCO3)CC1
vismodegib, 5000 nM: CS(=O)(=O)c1ccc(C(=O)Nc2ccc(Cl)c(-c3ccccn3)c2)c(Cl)c1

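Human melanoma cells were exposed to two drugs together for 72 h in 1,536-well plates and read by automated microscopy after fixing and staining. Values are the number of DAPI-stained nuclei as a percentage of the DMSO control: 100 is no effect, lower means fewer cells. Concentrations were fixed for each drug; these are the higher of two levels. No replicate spread is given; individual values may be noisy.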 An unselected part of the screen is shown.

| Second drug | COLO 829 | COLO 800 | WM3619 | WM451Lu | C32 |
|---|---|---|---|---|---|
| bortezomib | 9.3 | 60.5 | 2.2 | 21.7 | 12.8 |
| dovitinib | 51.5 | 87.2 | 63.3 | 80.5 | 70.5 |
| MK-1775 | 101 | 78.5 | 27.4 | 99.2 | 93.5 |
| vismodegib | 101 | 59.6 | 118 | 91.8 | 114 |
| ruxolitinib | 128 | 139 | 88.0 | 97.7 | 75.4 |
| JZL184 | 92.7 | 75.8 | 102 | 95.6 | 91.0 |
| GW0742 | 87.6 | 74.7 | 88.2 | 117 | 105 |
| gemcitabine | 44.9 | 26.2 | 53.2 | 56.2 | 104 |
| sorafenib | 93.1 | 110 | 98.5 | 91.7 | 94.5 |
| etoposide | 84.6 | 138 | 62.7 | 99.3 | 92.7 |
| NVP-BEZ235 | 103 | 100 | 71.8 | 92.4 | 102 |
| enzastaurin | 89.8 | 115 | 92.6 | 89.0 | 88.2 |
| lestaurtinib | 109 | 111 | 85.1 | 76.6 | 101 |